# This is one part of the list. The data scatter; read single values as rough.
# The chains behind the UniProt entries cited, without tags or fusion partners. Where a name states a change or a piece, a line headed by the entry shows the natural chain unless it says otherwise. Residues count along the entry.
# UniProt Q6PCT2: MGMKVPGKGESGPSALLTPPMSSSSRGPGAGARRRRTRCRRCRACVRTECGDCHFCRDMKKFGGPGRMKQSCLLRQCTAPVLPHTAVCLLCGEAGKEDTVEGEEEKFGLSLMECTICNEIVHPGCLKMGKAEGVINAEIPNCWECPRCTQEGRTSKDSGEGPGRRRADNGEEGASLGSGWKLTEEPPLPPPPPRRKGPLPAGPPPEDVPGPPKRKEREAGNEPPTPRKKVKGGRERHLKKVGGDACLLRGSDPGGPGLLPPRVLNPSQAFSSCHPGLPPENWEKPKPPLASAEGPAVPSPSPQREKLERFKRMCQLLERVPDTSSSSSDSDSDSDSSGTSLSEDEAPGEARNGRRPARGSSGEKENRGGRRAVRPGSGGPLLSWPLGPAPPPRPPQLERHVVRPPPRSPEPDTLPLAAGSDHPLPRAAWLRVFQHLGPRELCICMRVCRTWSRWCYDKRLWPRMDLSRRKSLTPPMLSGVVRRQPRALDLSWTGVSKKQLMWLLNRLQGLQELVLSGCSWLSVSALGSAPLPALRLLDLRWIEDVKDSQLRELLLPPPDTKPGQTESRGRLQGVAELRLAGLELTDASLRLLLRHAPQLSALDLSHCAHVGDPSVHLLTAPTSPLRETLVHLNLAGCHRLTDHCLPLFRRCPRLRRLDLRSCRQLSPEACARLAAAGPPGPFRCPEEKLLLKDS
# UniProt Q96ME1, 148-167: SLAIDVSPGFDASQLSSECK
# UniProt Q13480: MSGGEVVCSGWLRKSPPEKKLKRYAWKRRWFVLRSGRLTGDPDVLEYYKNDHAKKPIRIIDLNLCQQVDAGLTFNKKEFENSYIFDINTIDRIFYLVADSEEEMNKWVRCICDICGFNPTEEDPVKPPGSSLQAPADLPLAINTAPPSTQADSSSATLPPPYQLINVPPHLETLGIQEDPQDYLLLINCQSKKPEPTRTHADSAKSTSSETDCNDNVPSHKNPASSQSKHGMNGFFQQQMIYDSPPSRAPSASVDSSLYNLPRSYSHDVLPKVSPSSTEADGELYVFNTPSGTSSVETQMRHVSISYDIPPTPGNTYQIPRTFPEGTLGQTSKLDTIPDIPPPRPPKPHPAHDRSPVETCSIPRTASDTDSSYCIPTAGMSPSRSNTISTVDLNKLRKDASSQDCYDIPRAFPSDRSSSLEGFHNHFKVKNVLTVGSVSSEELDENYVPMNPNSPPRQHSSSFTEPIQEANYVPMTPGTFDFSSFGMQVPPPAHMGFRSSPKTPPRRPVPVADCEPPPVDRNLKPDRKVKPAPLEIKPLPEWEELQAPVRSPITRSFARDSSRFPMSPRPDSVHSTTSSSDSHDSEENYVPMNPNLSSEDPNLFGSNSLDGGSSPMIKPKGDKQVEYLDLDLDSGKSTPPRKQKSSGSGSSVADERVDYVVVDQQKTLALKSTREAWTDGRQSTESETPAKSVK
# UniProt Q13642: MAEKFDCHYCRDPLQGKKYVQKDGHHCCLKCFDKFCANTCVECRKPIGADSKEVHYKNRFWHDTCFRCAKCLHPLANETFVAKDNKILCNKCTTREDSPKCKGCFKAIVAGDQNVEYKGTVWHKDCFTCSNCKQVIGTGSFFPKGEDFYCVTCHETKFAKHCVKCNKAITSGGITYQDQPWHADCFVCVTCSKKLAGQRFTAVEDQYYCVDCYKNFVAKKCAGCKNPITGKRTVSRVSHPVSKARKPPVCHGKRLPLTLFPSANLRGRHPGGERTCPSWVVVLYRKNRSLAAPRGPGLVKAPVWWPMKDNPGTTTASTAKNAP
# UniProt O75879, 213-237: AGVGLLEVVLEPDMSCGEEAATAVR
# UniProt Q14C86: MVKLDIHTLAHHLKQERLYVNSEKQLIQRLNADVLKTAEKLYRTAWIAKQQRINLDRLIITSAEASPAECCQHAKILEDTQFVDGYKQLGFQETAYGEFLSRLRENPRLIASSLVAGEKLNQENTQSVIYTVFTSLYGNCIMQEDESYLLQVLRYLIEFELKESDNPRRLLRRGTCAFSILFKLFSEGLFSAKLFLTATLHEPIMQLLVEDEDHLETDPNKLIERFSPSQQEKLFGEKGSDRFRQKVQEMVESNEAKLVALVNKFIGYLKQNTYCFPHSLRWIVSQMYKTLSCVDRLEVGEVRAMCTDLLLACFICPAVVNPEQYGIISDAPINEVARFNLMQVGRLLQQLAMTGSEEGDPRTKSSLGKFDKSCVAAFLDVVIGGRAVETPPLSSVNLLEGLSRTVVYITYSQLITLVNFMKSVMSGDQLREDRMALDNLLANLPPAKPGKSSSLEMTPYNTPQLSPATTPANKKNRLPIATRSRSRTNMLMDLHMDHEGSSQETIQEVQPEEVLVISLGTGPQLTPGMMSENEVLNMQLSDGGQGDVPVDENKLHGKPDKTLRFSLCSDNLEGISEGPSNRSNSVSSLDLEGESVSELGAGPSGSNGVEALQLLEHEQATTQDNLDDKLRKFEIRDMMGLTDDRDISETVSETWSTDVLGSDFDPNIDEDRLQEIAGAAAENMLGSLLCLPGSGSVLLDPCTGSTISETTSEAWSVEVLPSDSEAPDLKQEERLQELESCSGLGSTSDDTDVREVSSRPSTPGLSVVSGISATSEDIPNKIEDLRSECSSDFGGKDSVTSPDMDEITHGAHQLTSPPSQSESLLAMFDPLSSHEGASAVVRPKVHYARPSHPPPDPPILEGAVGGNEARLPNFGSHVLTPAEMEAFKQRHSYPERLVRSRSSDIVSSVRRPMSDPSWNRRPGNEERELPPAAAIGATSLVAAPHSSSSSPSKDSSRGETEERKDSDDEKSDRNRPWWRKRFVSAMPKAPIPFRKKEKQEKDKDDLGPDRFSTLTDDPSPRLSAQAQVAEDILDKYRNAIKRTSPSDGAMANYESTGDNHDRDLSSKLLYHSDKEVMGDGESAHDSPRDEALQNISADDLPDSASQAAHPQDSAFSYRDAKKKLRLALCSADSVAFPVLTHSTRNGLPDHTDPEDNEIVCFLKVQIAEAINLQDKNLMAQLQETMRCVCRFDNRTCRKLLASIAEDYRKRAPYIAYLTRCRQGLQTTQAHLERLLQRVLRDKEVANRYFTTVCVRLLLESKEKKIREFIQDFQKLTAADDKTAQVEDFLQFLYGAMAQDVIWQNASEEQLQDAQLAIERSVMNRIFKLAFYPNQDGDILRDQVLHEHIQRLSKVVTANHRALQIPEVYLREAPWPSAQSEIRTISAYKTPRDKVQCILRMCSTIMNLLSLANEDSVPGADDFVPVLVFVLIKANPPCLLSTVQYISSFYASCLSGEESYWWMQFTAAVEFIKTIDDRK
# UniProt Q96IG2: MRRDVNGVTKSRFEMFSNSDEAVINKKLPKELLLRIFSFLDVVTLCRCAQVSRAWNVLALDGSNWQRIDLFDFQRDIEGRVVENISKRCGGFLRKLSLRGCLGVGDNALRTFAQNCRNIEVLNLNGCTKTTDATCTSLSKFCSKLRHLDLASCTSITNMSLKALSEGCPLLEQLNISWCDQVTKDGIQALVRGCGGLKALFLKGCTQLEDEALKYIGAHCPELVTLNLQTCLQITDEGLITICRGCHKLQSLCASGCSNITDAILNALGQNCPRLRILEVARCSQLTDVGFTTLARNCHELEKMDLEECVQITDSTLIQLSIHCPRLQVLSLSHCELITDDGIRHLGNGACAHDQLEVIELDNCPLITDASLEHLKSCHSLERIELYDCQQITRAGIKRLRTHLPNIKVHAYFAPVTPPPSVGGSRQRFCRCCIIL
# UniProt O75369: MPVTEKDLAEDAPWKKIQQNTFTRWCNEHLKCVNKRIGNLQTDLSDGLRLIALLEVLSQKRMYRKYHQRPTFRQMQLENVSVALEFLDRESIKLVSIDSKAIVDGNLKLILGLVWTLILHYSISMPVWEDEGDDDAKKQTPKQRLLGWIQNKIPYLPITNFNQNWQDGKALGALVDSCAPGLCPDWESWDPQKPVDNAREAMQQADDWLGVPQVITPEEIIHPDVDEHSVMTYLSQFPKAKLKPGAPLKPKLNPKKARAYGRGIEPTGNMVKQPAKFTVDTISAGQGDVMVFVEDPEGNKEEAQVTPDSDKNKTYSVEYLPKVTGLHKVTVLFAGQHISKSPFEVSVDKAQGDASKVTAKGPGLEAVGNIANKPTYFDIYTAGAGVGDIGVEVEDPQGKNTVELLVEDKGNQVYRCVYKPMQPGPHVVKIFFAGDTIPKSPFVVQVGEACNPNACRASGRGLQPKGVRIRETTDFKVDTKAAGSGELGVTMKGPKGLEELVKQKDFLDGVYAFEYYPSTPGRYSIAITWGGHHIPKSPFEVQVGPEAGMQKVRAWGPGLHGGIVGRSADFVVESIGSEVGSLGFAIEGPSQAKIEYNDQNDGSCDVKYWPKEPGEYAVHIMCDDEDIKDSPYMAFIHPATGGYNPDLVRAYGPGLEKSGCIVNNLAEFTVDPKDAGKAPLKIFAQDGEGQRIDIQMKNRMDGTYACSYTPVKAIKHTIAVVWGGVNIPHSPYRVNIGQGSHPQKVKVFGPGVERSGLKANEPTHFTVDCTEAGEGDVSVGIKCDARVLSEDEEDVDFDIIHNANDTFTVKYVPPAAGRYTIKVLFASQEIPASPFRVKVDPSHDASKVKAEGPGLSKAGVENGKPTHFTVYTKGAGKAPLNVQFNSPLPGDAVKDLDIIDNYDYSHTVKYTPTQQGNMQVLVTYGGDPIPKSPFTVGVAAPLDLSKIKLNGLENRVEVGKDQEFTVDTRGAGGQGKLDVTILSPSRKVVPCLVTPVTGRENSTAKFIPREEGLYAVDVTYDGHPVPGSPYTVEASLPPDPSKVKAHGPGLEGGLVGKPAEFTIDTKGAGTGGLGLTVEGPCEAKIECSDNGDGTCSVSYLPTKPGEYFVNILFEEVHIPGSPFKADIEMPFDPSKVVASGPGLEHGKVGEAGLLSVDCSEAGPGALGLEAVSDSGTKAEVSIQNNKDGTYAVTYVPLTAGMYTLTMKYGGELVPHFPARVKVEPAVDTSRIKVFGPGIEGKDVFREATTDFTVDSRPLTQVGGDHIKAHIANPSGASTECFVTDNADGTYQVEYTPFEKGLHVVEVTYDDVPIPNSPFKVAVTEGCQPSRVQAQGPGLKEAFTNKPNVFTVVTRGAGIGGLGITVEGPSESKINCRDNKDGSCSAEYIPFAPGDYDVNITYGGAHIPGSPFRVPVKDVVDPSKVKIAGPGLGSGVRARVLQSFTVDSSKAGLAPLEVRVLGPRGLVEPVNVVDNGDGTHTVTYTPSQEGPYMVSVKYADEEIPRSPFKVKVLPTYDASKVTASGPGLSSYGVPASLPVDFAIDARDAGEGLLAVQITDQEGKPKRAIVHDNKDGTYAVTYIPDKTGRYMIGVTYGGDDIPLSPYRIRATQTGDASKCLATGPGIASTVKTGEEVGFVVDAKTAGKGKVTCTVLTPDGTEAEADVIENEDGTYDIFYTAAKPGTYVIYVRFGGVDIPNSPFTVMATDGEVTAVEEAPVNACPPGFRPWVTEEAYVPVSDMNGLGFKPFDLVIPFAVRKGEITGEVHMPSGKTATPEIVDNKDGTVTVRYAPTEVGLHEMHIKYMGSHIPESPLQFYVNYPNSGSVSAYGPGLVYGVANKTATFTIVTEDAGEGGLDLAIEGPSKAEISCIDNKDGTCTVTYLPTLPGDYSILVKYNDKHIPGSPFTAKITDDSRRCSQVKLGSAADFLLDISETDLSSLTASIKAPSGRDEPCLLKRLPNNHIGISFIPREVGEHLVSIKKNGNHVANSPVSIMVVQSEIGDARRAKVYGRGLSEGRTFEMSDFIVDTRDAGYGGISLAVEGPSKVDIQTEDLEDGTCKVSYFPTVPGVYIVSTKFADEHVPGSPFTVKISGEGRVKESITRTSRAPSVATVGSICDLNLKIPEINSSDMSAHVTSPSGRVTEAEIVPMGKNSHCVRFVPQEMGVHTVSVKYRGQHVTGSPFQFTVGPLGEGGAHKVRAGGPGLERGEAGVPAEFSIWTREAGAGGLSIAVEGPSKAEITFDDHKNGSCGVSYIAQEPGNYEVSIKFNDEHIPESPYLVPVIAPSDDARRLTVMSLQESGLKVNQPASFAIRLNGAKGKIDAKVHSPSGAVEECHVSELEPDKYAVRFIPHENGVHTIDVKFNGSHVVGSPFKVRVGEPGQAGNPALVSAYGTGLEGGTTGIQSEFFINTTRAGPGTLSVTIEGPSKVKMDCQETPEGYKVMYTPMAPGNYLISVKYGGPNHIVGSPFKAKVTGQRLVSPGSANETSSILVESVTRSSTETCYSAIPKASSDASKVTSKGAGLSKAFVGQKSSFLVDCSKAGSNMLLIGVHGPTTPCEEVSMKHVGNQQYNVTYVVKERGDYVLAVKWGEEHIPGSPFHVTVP
# UniProt P22087, 266-285: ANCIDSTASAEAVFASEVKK
# Compound: ClCC(=O)N[C@H]1CCCc2ccccc12
# Test: log2 mean competition ratio of IA-DTB cysteine labelling (DMSO/compound) (log2 ratio); higher = stronger cysteine engagement by compound
# Details: 50 µM; treatment time: 4 h; cell line lysate: HEK293T
# Protocol: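 IA-DTB competitive cysteine chemoproteomics in HEK293T RIPA lysate. Lysates were treated with compound 29 or 30 at 50 or 200 µM for 4 h, then IA-DTB (500 µM, 1 h), trypsin-digested, NeutrAvidin-enriched and analysed by diaPASEF. Competition ratio = intensity DMSO / intensity compound (n=4 treated, n=64 DMSO); binding: mean log2 CR ≥ 1 and p ≤ 0.05 plus QC filters. Target is the cysteine site.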
row,Target,log2 mean competition ratio
1,GARRE1 C512,0.154
2,FUBP3 C366 (UniProt Q96I24),0.0432
3,FBXL19 C670 (UniProt Q6PCT2),-0.184
4,FBXL18 C166 (UniProt Q96ME1),-0.351
5,GAB1 C405 (UniProt Q13480),-0.0776
6,FYCO1 C1110 (UniProt Q9BQS8),0.0671
7,FOXJ2 C145 (UniProt Q9P0K8),0.151
8,GALK2 C303 (UniProt Q01415),0.246
9,FHL1 C71 (UniProt Q13642),-0.184
10,FOXO4 C243 (UniProt P98177),0.0576
11,GATB C228 (UniProt O75879),-0.597
12,GAPVD1 C293 (UniProt Q14C86),-0.0202
13,FTO C104 (UniProt Q9C0B1),-0.433
14,FAT4 C4166 (UniProt Q6V0I7),-0.349
15,FSCN1 C61 (UniProt Q16658),0.167
16,GAMT C220 (UniProt Q14353),0.383
17,FBXL20 C127 (UniProt Q96IG2),0.248
18,FERMT2 C426 (UniProt Q96AC1),0.0754
19,FLNB C2501 (UniProt O75369),-0.207
20,FBL C268 (UniProt P22087),-0.414

# Same assay, conditions: 200 µM; treatment time: 4 h; cell line lysate: HEK293T
row,Target,log2 mean competition ratio
1,GARRE1 C512,-0.131
2,FUBP3 C366 (UniProt Q96I24),0.0133
3,FBXL19 C670 (UniProt Q6PCT2),0.79
4,FBXL18 C166 (UniProt Q96ME1),0.145
5,GAB1 C405 (UniProt Q13480),-0.0754
6,FYCO1 C1110 (UniProt Q9BQS8),0.0146
7,FOXJ2 C145 (UniProt Q9P0K8),-0.0187
8,GALK2 C303 (UniProt Q01415),0.165
9,FHL1 C71 (UniProt Q13642),-0.353
10,FOXO4 C243 (UniProt P98177),0.249
11,GATB C228 (UniProt O75879),0.0508
12,GAPVD1 C293 (UniProt Q14C86),-0.239
13,FTO C104 (UniProt Q9C0B1),-0.0357
14,FAT4 C4166 (UniProt Q6V0I7),0.0224
15,FSCN1 C61 (UniProt Q16658),0.33
16,GAMT C220 (UniProt Q14353),-0.21
17,FBXL20 C127 (UniProt Q96IG2),0.299
18,FERMT2 C426 (UniProt Q96AC1),-0.114
19,FLNB C2501 (UniProt O75369),-0.0376
20,FBL C268 (UniProt P22087),-0.00541
